Compound in the experiment: Cc1cc(ccc1-c1ccccc1)C(=O)N1CCCN(CC1)C(=O)CCl [compound 10]
In words: probe-labelled cysteine peptide fold change vs DMSO (competition) (log2 fold change); higher = less target engagement (more negative = stronger competition). The conditions noted are these: THP-1, incubation time: 4 h.

The chains behind the UniProt entries cited, without tags or fusion partners. Where a name states a change or a piece, a line headed by the entry shows the natural chain unless it says otherwise.
UniProt Q99832: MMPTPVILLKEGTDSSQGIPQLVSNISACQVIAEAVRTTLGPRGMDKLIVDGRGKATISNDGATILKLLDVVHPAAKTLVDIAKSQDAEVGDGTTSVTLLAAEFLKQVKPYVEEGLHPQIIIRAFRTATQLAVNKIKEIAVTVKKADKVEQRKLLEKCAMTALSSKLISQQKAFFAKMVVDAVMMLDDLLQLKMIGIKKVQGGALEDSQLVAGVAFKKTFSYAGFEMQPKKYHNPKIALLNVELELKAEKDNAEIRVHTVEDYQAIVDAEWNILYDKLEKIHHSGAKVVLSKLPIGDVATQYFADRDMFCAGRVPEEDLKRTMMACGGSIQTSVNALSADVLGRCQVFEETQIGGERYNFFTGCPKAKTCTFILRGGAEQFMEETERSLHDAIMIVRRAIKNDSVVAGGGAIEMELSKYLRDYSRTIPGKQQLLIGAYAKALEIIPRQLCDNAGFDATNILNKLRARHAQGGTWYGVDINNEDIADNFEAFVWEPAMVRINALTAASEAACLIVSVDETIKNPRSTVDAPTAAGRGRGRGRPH
UniProt O94986: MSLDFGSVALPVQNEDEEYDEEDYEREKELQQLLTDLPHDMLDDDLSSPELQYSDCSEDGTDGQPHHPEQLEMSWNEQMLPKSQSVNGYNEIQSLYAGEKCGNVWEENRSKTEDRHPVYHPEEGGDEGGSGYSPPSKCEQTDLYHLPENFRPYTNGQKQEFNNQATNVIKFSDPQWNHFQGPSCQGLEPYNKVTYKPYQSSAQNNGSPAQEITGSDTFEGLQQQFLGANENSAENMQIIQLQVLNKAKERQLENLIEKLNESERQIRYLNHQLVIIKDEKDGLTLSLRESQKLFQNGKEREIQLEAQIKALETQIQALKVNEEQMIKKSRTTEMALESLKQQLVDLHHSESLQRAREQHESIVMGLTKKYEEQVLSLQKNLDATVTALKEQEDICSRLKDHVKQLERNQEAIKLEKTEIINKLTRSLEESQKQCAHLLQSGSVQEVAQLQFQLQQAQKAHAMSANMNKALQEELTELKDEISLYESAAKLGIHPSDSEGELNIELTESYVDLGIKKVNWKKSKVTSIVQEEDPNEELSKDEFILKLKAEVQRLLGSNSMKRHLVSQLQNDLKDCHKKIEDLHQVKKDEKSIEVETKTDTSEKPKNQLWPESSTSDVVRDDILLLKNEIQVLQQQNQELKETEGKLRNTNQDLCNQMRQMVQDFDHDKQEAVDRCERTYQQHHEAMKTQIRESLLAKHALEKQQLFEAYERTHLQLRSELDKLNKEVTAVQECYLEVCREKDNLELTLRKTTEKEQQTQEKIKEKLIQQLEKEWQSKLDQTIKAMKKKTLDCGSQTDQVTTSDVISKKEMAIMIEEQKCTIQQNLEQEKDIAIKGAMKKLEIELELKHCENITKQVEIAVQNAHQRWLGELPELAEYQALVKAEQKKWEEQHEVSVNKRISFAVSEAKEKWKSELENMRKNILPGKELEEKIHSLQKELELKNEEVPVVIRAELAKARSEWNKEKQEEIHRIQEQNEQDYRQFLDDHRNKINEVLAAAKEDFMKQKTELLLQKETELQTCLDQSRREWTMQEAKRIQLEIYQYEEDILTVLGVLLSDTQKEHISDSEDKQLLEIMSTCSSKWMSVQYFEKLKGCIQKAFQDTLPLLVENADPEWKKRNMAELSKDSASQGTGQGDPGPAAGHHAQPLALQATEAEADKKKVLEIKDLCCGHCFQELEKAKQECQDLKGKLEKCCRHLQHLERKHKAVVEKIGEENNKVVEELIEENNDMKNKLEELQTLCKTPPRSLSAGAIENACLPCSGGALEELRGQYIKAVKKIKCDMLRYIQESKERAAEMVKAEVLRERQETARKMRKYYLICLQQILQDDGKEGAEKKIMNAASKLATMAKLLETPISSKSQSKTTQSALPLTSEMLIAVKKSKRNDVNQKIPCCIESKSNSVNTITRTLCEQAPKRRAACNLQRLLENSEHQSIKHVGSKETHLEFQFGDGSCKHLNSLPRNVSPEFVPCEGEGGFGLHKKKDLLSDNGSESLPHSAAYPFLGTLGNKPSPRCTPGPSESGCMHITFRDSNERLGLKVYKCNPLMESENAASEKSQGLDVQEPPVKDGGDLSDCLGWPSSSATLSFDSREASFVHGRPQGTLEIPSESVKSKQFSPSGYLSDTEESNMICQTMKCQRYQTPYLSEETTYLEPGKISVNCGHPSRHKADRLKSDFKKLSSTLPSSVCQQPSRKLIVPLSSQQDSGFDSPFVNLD
UniProt P49454: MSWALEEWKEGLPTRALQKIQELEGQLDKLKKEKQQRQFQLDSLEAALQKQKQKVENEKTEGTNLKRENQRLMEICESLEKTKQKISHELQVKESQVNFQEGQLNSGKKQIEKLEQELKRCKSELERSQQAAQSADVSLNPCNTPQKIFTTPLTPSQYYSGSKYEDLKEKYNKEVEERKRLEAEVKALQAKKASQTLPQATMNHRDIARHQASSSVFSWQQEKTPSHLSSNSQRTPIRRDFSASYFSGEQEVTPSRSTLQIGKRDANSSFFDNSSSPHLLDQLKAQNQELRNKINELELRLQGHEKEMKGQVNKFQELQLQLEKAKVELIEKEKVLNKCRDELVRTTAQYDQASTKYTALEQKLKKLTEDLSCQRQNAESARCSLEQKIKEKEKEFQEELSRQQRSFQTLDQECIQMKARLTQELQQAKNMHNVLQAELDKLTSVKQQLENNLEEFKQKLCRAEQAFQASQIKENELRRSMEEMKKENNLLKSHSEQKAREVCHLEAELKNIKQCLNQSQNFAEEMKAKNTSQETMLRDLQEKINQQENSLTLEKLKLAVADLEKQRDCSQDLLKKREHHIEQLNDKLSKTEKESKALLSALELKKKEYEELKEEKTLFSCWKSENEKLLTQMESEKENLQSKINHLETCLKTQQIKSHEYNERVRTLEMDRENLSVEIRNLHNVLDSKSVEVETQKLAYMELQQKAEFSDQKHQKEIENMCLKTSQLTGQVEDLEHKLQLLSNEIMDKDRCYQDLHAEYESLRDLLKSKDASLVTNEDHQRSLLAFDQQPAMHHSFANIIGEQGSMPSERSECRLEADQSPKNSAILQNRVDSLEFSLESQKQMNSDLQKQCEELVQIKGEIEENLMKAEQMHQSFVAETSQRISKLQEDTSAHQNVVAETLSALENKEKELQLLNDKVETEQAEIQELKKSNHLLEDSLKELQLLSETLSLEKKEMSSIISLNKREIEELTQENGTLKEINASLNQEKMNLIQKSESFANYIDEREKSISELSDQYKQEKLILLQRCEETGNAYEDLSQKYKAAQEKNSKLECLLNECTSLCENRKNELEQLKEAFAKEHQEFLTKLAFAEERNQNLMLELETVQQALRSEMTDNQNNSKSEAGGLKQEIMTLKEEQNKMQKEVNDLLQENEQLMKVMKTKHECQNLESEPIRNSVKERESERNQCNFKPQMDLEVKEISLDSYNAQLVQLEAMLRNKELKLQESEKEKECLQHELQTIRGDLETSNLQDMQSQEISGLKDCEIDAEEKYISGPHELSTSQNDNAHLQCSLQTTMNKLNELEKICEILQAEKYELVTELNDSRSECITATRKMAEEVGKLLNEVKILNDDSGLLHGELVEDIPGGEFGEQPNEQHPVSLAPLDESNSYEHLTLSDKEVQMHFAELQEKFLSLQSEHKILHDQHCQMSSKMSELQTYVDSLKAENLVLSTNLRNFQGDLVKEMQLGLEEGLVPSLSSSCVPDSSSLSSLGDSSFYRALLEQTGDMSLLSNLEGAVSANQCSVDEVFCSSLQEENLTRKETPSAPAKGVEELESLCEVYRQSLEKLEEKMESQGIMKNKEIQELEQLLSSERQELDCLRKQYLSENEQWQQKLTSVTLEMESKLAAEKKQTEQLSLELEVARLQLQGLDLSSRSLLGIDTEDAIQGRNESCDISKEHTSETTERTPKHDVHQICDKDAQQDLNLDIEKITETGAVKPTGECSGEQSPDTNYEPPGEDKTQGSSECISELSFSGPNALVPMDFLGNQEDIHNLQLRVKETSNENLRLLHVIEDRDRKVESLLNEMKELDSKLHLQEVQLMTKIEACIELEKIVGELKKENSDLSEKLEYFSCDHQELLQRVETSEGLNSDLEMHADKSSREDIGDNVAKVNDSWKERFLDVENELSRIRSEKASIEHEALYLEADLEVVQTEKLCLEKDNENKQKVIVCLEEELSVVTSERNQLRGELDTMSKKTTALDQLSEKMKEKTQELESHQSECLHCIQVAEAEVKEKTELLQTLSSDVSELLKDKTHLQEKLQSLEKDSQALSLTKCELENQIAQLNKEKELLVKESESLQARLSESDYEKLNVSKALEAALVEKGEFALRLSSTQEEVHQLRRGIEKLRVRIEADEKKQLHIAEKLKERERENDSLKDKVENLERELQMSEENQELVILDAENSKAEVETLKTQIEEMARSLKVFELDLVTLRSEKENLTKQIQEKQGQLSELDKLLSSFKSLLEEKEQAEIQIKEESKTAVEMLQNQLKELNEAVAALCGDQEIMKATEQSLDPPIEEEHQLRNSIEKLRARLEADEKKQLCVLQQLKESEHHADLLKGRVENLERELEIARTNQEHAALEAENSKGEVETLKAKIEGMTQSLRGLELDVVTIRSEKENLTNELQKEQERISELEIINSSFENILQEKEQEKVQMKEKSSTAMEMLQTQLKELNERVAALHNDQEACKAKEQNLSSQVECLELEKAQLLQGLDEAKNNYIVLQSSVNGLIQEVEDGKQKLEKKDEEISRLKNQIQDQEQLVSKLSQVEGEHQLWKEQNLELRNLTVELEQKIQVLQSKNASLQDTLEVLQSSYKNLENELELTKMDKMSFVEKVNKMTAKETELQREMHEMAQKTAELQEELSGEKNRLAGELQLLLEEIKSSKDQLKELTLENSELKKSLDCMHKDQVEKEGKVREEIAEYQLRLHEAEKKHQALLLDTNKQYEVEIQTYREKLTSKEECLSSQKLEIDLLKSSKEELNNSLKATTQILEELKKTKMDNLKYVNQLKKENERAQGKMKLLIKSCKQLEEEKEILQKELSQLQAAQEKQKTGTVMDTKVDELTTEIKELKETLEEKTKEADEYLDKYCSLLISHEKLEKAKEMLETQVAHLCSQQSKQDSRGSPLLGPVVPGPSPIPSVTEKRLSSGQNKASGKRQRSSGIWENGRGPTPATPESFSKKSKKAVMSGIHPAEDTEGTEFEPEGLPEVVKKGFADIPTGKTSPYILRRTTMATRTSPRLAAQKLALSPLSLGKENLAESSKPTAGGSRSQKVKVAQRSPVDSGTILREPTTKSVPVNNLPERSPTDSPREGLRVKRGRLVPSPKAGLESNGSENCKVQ
UniProt P50990: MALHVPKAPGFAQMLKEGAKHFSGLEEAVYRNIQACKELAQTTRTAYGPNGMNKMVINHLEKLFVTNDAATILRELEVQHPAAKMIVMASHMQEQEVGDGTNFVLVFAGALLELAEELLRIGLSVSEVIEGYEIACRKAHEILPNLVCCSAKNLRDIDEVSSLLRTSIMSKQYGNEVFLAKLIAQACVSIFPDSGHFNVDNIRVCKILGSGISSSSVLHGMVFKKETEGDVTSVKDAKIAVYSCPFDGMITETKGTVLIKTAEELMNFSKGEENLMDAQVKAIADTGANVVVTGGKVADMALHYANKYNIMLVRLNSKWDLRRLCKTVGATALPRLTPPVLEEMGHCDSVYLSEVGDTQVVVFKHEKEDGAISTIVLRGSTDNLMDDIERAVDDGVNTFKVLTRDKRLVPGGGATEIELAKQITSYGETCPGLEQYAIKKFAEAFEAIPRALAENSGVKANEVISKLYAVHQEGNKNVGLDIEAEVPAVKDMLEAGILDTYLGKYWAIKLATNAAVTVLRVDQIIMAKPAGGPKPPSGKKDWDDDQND
UniProt Q9NRR8: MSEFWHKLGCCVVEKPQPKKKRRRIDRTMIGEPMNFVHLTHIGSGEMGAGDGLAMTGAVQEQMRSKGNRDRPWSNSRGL
UniProt O95319: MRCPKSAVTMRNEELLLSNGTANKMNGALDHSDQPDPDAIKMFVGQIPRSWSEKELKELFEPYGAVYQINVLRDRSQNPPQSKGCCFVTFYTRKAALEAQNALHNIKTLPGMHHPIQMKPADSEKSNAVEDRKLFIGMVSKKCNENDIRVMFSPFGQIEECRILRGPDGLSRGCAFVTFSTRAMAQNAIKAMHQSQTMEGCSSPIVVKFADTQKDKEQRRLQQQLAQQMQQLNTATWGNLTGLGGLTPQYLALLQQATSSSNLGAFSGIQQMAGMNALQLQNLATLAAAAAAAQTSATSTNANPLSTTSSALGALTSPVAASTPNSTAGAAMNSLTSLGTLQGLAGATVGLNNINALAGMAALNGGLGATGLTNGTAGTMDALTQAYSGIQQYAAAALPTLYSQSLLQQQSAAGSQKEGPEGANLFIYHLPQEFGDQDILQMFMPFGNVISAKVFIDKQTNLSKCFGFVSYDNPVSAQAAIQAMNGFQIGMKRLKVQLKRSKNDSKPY

The values that follow come from the supplement of paper PMC12067093, “Discovery and optimisation of a covalent ligand for TRIM25 and its application to targeted protein ubiquitination” (Chemical Science, 2025).

This is one part of the list.
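Further: competitive profiling in live THP-1 cells: cysteine peptides tagged with an iodoacetamide desthiobiotin (IA-DTB) probe, intensity after compound treatment relative to DMSO-treated cells.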

Take “CFAP20_Q9Y6A4_61_ITDNDIQSLVLEIEGTNVSTTYITCPADPKK (UniProt Q9Y6A4)”: the “probe-labelled cysteine peptide fold change” value runs as follows: (10 µM) 0.0394; (50 µM) 0.0434.
With “CES1_P23141_116_LSEDCLYLNIYTPADLTK (UniProt P23141)”, the “probe-labelled cysteine peptide fold change” value was found to be 0.146 (10 µM) and 0.347 (50 µM).
On the same counts, the results for “CDK5RAP2_Q96SN8_434_SKGDCTIR (UniProt Q96SN8)” are 0.216 and 0.11.
The matching figures for “CCT7_Q99832_310_LPIGDVATQYFADRDMFCAGRVPEEDLKR (UniProt Q99832)”: -0.232 and -0.817.
On the same counts, the results for “CEP152_O94986_732_EVTAVQECYLEVCR (UniProt O94986)” are 0.205 and 0.244.
In the case of “CDC40_O60508_378_KVPYCVK (UniProt O60508)”, the “probe-labelled cysteine peptide fold change” value is, setting by setting: (10 µM) -0.335; (50 µM) -0.733.
Consider “CENPF_P49454_1426_ILHDQHCQMSSK (UniProt P49454)”, for which the “probe-labelled cysteine peptide fold change” value (10 µM) worked out at 0.127 and the “probe-labelled cysteine peptide fold change” value (50 µM) stood at 0.137.
Take “CEP350_Q5VT06_1432_EVTEVLQEATCK (UniProt Q5VT06)”: the “probe-labelled cysteine peptide fold change” value was -0.411 (10 µM) and -0.297 (50 µM).
Consider “CDC23_Q9UJX2_500_YIQDIYSCGEIVEHLEESTAFR (UniProt Q9UJX2)”, for which the “probe-labelled cysteine peptide fold change” value (10 µM) was -0.0959 and the “probe-labelled cysteine peptide fold change” value (50 µM) was -0.296.
Turning to “CEP152_O94986_791_TLDCGSQTDQVTTSDVISK (UniProt O94986)”, the “probe-labelled cysteine peptide fold change” value (10 µM) was -0.00536 and the “probe-labelled cysteine peptide fold change” value (50 µM) was -0.0146.
For the target “CEP55_Q53EZ4_462_DLLVHVEYCSK (UniProt Q53EZ4)”, the “probe-labelled cysteine peptide fold change” value (10 µM) was 0.0253 and the “probe-labelled cysteine peptide fold change” value (50 µM) was -0.153.
For the target CCT8_P50990_36_NIQACK (UniProt P50990), the “probe-labelled cysteine peptide fold change” value by setting is: (10 µM) 0.094; (50 µM) 0.176.
For “CEP41_Q9BYV8_171_DKPYPDCPFLLLDVR (UniProt Q9BYV8)”, the “probe-labelled cysteine peptide fold change” value is, setting by setting: (10 µM) 0.208; (50 µM) -0.125.
Take “CD70_P32970_17_RRPYGCVLR (UniProt P32970)”: the “probe-labelled cysteine peptide fold change” value is, setting by setting: (10 µM) -1.01; (50 µM) -0.757.
For the target “CDC16_Q13042_544_CYDFDVHTMK (UniProt Q13042)”, the “probe-labelled cysteine peptide fold change” value is -0.163 (10 µM) and -0.226 (50 µM).
The matching figures for “CD97_P48960_513_GGHWATEGCQVLGSK (UniProt P48960)”: -0.139 and -0.0119.
As to “CENPF_P49454_2985_EMLETQVAHLCSQQSK (UniProt P49454)”, the “probe-labelled cysteine peptide fold change” value runs as follows: (10 µM) 0.304; (50 µM) 0.288.
For the target “CFAP36_Q96G28_138_NGVLPDCLTDGSDVVSDLEHEEMK (UniProt Q96G28)”, the “probe-labelled cysteine peptide fold change” value (10 µM) was -0.129 and the “probe-labelled cysteine peptide fold change” value (50 µM) was -0.254.
The matching figures for “CDC42SE1_Q9NRR8_11_LGCCVVEKPQPK (UniProt Q9NRR8)”: -0.057 and -0.899.
Take “CENPV_Q7Z7K6_216_AQHTFCK (UniProt Q7Z7K6)”: the “probe-labelled cysteine peptide fold change” value runs as follows: (10 µM) 0.0919; (50 µM) 0.0649.
On the same counts, the results for “CFAP20_Q9Y6A4_61_RITDNDIQSLVLEIEGTNVSTTYITCPADPKK (UniProt Q9Y6A4)” are 0.115 and 0.0876.
Regarding “CDK5_Q00535_117_GLGFCHSR (UniProt Q00535)”, the “probe-labelled cysteine peptide fold change” value by setting is: (10 µM) 0.00449; (50 µM) 0.158.
Regarding “CELF2_O95319_85+86_GCCFVTFYTR (UniProt O95319)”, the “probe-labelled cysteine peptide fold change” value (10 µM) was -0.178 and the “probe-labelled cysteine peptide fold change” value (50 µM) was -0.561.
Turning to “CDYL_Q9Y232_515_LTAQEACGK (UniProt Q9Y232)”, the “probe-labelled cysteine peptide fold change” value was found to be 0.0333 (10 µM) and 0.277 (50 µM).
In the case of “CD40_P25942_119_GTSETDTICTCEEGWHCTSEACESCVLHR (UniProt P25942)”, the “probe-labelled cysteine peptide fold change” value is, setting by setting: (10 µM) -0.531; (50 µM) 0.0643.
Regarding “CDK12_Q9NYV4_1039_MAPPDLPHWQDCHELWSK (UniProt Q9NYV4)”, the “probe-labelled cysteine peptide fold change” value is, setting by setting: (10 µM) -0.149; (50 µM) -0.32.
Regarding “CELF1_Q92879_119_CTENDIR (UniProt Q92879)”, the “probe-labelled cysteine peptide fold change” value reads like this: (10 µM) 0.0497; (50 µM) 0.276.
For “CEP350_Q5VT06_413_VAQLSSTECR (UniProt Q5VT06)”, the “probe-labelled cysteine peptide fold change” value was 0.0126 (10 µM) and 0.528 (50 µM).
On the same counts, the results for “CDC42BPB_Q9Y5S2_1328_GCQLMATATLKR (UniProt Q9Y5S2)” are 0.1 and -0.265.
“CD46_P15529_157_GSVAIWSGKPPICEK (UniProt P15529)”: the “probe-labelled cysteine peptide fold change” value (10 µM) is -0.205 and the “probe-labelled cysteine peptide fold change” value (50 µM) is -0.0545.
For the target “CCT7_Q99832_345_CQVFEETQIGGER (UniProt Q99832)”, the “probe-labelled cysteine peptide fold change” value is, setting by setting: (10 µM) 0.0913; (50 µM) 0.138.
The matching figures for “CELF2_O95319_201_AMHQSQTMEGCSSPIVVK (UniProt O95319)”: 0.00477 and -0.115.
As for “CDC123_O75794_9_EHVLHCQFSAWYPFFR (UniProt O75794)”, the “probe-labelled cysteine peptide fold change” value runs as follows: (10 µM) 0.161; (50 µM) 0.261.
For the target “CDK16_Q00536_206_EIRLEHEEGAPCTAIR (UniProt Q00536)”, the “probe-labelled cysteine peptide fold change” value by setting is: (10 µM) -0.185; (50 µM) -0.768.
“CFAP20_Q9Y6A4_160_VQIHANCR (UniProt Q9Y6A4)”: the “probe-labelled cysteine peptide fold change” value runs as follows: (10 µM) 0.0969; (50 µM) 0.272.
